Data taken from patent US8974836B2, “Angiogenesis regulating composition and method for regulating angiogenesis” (Air Water, Inc., priority 2009, dated 2015).

Tests used:
[1] = test system: model mice of oxygen-induced retinal angiogenesis; test: Exemplary experiment 4: nitrite versus general-purpose nitrogen monoxide donor drugs, retinal avascular area; format: in vivo, C57BL/6J mouse
Experimental: Preparation of the model mice of oxygen-induced retinal angiogenesis, fluorescent imaging of retinal vessels and a retinal flat-mount were operated according to exemplary experiment 1.
(§1) Areal ratio of retinal avascular area was calculated pursuant to exemplary experiment 1.

[2] = test system: model mice of oxygen-induced retinal angiogenesis; test: Exemplary experiment 3: regulation of retinal angiogenesis, administration from start of angiogenesis (P12); format: in vivo, C57BL/6J mouse; conditions: 15 μmol/kg hypodermically once per day P12-P16, average
Experimental: For the model mice of oxygen-induced retinal angiogenesis, retinal angiogenesis is induced by providing 75% oxygen followed by breeding in room air during P12-P17.
Sodium nitrate or sodium nitrite as a test compound was dissolved in physiological saline for injection to prepare a test compound injection of […].
Preparation of the model mice of oxygen-induced retinal angiogenesis, fluorescent imaging of retinal vessels and a retinal flat-mount were operated according to exemplary experiment 1. However sodium nitrate or sodium nitrite was injected to a cervical region hypodermically once per day in amount of 15 μmol/kg for […] from the 12th day (P12) to the 16th day (P16) after birth. In addition, physiological saline as controls was similarly injected hypodermically instead of test compound for the same period of time.
as §1

[3] = test system: model mice of oxygen-induced retinal angiogenesis
[4] = 75 μmol/kg hypodermically once per day P7-P16, evaluated P17, average

Row | Compound | value of total retinal area ([1]; 20 μmol/kg hypodermically once per day P7-P16, average) | value of total retinal area [2] | value of total retinal area [3, 4] | value of total retinal area ([1]; 15 μmol/kg hypodermically once per day P7-P16, average) | value of total retinal area ([3]; 15 μmol/kg hypodermically once per day P7-P16, evaluated P17, average)
1 | O=[N+]([O-])OCC(CO[N+](=O)[O-])O[N+](=O)[O-] [NTG, nitroglycerin] | 6817842.90 μm^2 | – | – | – | –
2 | O=[N+]([O-])[O-].[Na+] [sodium nitrate] | – | 5782966.84 μm^2 | 6629478.87 μm^2 | – | –
3 | O=NO [sodium nitrite] | – | 6688088.68 μm^2 | 5711629.25 μm^2 | 6483871.44 μm^2 | 6483871.44 μm^2

Like-named read-outs stand apart in the source and are kept apart here.
